Laboratory results published in patent US9340600B2 (Indiana University Research and Technology Corporation, priority 2012, dated 2016).

Assay: general procedure: Boc solid-phase peptide synthesis; MBHA resin, 100-180 mesh, 1% DVB, loading 0.7-1.0 mmol/g (Midwest Biotech); DEPBT/DIEA single couplings; DIC for acylation
Details: Analytical HPLC, UV 214/220 nm

Substance | final HPLC purity (whole synthesis, scale of the general procedure 0.2 mmole) [%+] | final HPLC purity (lipidation step) [%+]
dPEG-gammaGlu-C16 peptide (mass 5010.6) | 90 | 
Glucagon Aib2 E16 A18 L27 D29 Cex Cys40(S-2 palmityl)amide |  | 90
